The source of these data is paper doi:10.1101/117952.

Sequences of proteins named here, by UniProt entry; tags and fusion partners are left off.
UniProt Q62205: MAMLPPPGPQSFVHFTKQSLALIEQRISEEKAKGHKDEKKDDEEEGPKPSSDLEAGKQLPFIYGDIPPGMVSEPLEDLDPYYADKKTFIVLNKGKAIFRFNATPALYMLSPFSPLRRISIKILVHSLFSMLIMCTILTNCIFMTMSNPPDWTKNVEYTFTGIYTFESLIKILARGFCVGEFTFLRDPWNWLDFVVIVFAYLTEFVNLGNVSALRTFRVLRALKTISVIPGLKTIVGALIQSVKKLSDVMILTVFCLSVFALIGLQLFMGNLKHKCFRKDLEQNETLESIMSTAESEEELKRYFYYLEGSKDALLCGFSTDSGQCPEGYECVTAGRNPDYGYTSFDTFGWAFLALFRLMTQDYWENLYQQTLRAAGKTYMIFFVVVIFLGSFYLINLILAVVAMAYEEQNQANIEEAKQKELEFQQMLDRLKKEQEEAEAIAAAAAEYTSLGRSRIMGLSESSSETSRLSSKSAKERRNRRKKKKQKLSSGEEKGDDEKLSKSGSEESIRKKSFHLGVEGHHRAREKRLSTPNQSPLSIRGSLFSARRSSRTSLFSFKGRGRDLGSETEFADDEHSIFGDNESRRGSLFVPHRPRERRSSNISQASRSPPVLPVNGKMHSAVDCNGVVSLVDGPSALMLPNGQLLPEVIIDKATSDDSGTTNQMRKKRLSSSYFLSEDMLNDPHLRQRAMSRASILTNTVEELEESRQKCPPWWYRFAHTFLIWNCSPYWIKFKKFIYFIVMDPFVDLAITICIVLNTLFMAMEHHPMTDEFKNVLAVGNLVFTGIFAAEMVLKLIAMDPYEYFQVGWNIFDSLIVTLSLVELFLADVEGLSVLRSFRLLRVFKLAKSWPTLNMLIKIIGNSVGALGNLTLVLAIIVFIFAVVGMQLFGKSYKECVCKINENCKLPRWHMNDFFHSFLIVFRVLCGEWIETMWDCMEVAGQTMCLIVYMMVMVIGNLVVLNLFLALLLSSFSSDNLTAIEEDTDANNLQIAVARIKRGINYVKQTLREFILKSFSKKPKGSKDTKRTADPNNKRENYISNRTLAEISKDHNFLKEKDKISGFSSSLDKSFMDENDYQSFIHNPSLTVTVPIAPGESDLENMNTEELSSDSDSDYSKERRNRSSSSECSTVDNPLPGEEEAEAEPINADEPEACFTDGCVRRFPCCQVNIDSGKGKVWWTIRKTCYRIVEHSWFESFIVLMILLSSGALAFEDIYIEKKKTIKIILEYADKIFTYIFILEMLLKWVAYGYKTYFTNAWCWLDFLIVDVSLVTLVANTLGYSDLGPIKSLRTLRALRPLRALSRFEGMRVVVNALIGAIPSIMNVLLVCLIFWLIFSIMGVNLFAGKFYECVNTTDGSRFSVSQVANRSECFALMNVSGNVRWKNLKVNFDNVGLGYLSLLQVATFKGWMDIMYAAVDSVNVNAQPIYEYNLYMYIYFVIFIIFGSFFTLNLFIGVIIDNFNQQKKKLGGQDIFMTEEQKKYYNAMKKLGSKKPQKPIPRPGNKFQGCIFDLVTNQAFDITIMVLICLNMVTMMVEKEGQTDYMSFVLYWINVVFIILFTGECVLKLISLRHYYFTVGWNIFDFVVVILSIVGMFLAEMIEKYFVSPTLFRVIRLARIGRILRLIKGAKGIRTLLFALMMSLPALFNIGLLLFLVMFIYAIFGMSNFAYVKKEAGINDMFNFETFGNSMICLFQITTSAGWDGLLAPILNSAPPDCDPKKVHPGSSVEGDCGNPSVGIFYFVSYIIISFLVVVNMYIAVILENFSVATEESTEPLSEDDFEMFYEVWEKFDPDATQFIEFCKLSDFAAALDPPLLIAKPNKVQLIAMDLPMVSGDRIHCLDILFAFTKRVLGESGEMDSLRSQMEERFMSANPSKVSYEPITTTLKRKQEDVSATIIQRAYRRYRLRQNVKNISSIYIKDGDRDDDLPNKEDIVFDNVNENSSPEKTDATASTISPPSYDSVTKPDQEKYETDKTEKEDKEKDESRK

The assay deals with Epitope-tagged Nav1.7 (voltage-gated sodium channel Nav1.7, TAP-tagged) (mouse) (UniProt Q62205). Description: co-IP.

No constants are given. Whether binding was seen depends on the method and setting. Binding seen in cells or lysates may run through a third protein. Some binding calls cover weakened binding; strength is not graded here.

B1: Gprin1 (protein, UniProt Q3UNH4 1-932)
chain: MRDCCSSPKAIPAPPRHALDQSLGMDPRHTSSSGAAEGASCSERPAGSLACPSPNCSPLPETPRAHGALTSDNSGTTLFGKPEPMSSAEATPTASEIRNPVFSGKMDGNSLKQADSTSTRKEEAGSLRNEESMLKGKAEPMIYGKGEPGTVGRVDCTASGAENSGSLGKVDMPCSSKVDIVSPGGDNAGSLRKVETISSGKMDPKTENVMHSRRERPGSTGEGDLVSLRENDMKPPDNTDSASTKKTDPEFSGKLTPGSSGKTELVSSVTVAPVTSENVNPVCSGGAGPAAVGNSETLSSVKKDPQLLGKKEAVSSGEGGSVSVRMAETVSARQPEGMFPAKTDSTSSNSTGPSGRADPVSLRNSELVSPVKPERLSSGQAERVSLVKTETLSSGKEDPRSSRRVDHTTVTGNMQTSQKGNPESSGKTDLGSSSSGDTRSLGTWGSLSAAKAEVTEGKGDPQPWKKASLPASEKTDPLASSKAGSASQGKAETVSPGEVDAMTLGKTVPTSSGKTALVSPGKVDLMTSERAEGIPELQASEKGNPVNSTRVDTGATGSTEPKSGVKVITQIPGATSPGKVETPSLQKEQPQLSEKTDPSRKVDPPTTVEPVSLGKADSASPSPRKAESQTSAKTVPQAPDKATSSLRQSDGTPYSSAQPQRDTRSIGSLPEREPSASTSQKDLAAAAAQKSPSAEAAAPPPGPRTRDNFTKAPSWDAGAPPPREDAGTQAGAQACVSVAVSPMSPQDGAGGPAFSFQAAPRAPSPAPRPPSRRDAGLQVSLGAAETRSVATGPMTPQAAAPPAVPPVFPEVRVRPGSVLAAALAPQEATEPVRDVSWDEKGMTWEVYGASMEVEVLGMAIQKHLERQIEEHGRQGAPAPAPPPAVRAGPGRAGSVRTAPAEGAAKRPPGLFRALLQSVRRPRCCSRAGPTAE
With B1, the binding entry is given as “binds”.
